# Measured values: PubChem BioAssay AID445 (National Center for Advancing Translational Sciences (NCATS), 2006)
# Some of the results follow. Shown are side measurements of this screen, not its main read-out; they come without a call. Most of these compounds were active or inconclusive in the main read-out, so they are no random draw. Potencies come from curve fits of mixed quality, noted in brackets.
# Assay: IkB Signaling
# Details: ABC-DLBCL IkBa-CBG/CBR dual luciferase ratio (green luciferase fused to IkBa over red control in OCI-Ly3 lymphoma cells), 4 h; measured here: control luc red channel unless noted
# Procedure, shortened: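 In this assay, an IκBα–CBG68 fusion accumulates when IKK-driven degradation is blocked; native CBR normalizes for cell number. OCI-Ly3 cells were treated 4 h with compound and doxycycline, then green and red light read after Chroma-Glo addition.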
row,Structure (SMILES),AC50
1,Cc1cc(C(F)(F)F)n2nc(-c3ccc(Br)cc3)cc2n1,"1 µM [rising, full curve]"
2,Cc1ccc2c(CC(=O)Nc3sccc3C(N)=O)coc2c1,"20 µM [falling, partial curve]"
3,CCCCOc1ccc(-c2nn(-c3ccccc3)cc2C2NC(=O)NC(C)=C2C(=O)OCC)cc1 (centres undefined),"20 µM [falling, single point]"
4,c1ccc(SCc2nc(-c3ccccn3)no2)cc1,"7.94 µM [falling, partial curve]"
5,CCc1ccc(Sc2cc(C(=O)NCc3ccccc3OC)c3ccccc3n2)cc1,"25.1 µM [falling, partial curve, poor fit]"
6,CCn1c(=O)cc(SCC(=O)NCc2ccc(F)cc2Cl)c2ccccc21,"20 µM [falling, partial curve]"
7,COc1cc(N[C@@H](C)CCCN)c2ncccc2c1,"15.8 µM [falling, partial curve]"
8,CCc1ccc(Sc2cc(C(=O)NCc3cccc(OC)c3)c3ccccc3n2)cc1,"10 µM [falling, partial curve]"
9,Cc1ccc(OCc2nc(-c3ccc(C(=O)N4CCN(c5ccccc5F)CC4)cc3)oc2C)cc1,"7.94 µM [falling, partial curve]"
10,O=C1OC(C(=O)Nc2cccc(Br)c2)Cc2ccccc21 (centres undefined),"1 µM [rising, full curve]"
11,Cc1ccc(NC(=O)c2ccc(-c3cccc(Cl)c3C)o2)cc1,"25.1 µM [falling, partial curve]"
12,COc1ccc(OC)c(CNC(=O)c2cc3c(-c4ccc(OC)c(OC)c4)nn(C)c3s2)c1,"3.16 µM [falling, full curve]"
13,CCCCCn1c(=O)[nH]c2cc(C(=O)Nc3cc(C)cc(C)c3)ccc2c1=O,"0.0501 µM [rising, full curve, poor fit]"
14,CN(C)S(=O)(=O)N(CC(=O)NCCSCc1ccccc1)c1ccccc1,"10 µM [falling, partial curve]"
15,COc1ccc(Cl)cc1NC(=O)c1cc(S(=O)(=O)NC2CCCCCC2)ccc1F,"20 µM [falling, partial curve, poor fit]"
16,Cc1ccc(C)c(NC(=O)CN2CCCN(Cc3cccc(Cl)c3)S2(=O)=O)c1,"12.6 µM [falling, partial curve]"
17,COc1cccc(NC(=O)/C=C\c2ccc(Cl)cc2)c1,"5.01 µM [falling, partial curve]"
18,CCC1(C)CC(=O)c2c(ccc3oc(C(=O)NCc4ccccc4)c(C)c23)O1 (centres undefined),"39.8 µM [falling, single point]"
19,COc1cccc(-c2cc(C(=O)Nc3c(C)nn(Cc4ccccc4Cl)c3C)no2)c1,"15.8 µM [falling, partial curve]"
20,Cc1cc2nnc(SCc3ccc(F)cc3)n2c2ccccc12,"20 µM [falling, partial curve]"
21,CC(C)CCn1c(=O)c2cccnc2n(CC(=O)Nc2ccc(F)cc2)c1=O,"20 µM [falling, partial curve]"
22,Cc1occc1-c1nnc(SCC(=O)Nc2ccccc2)n1CCc1ccccc1,"15.8 µM [falling, partial curve]"

row,Structure (SMILES),AC50
1,CN1CCN(C2(CNC(=O)c3ccc(C(C)(C)C)cc3)CCCCC2)CC1,"15.8 µM [falling, partial curve]"
2,COc1ccc(OCC(=O)Nc2nnc(S(=O)(=O)N3CCc4ccccc43)s2)cc1,"0.631 µM [rising, full curve, poor fit]"
3,Cc1cccc(C)c1Nc1c(-c2ccccc2F)nc2cccc(C)n12,"31.6 µM [falling, partial curve]"
4,CCOc1ccc(C(=O)/C=C/c2cn(CC(O)CN3CCCCCC3)c3ccccc23)cc1 (centres undefined),"25.1 µM [falling, partial curve]"
5,O=C(c1ccc(N2CCOCC2)cc1)c1cccs1,"10 µM [falling, partial curve]"
6,CCc1nnc(NC(=O)c2nc(S(=O)(=O)Cc3ccc(C)cc3)ncc2Cl)s1,"7.94 µM [falling, full curve]"
7,COc1ccc(NC(=O)c2cccc(NC(=O)c3ccco3)c2)c(OC)c1,"10 µM [falling, partial curve]"
8,COC(=O)c1ccc(CSc2nc(-c3ccco3)cc(C(F)(F)F)n2)o1,"25.1 µM [falling, single point]"
9,Nc1nc(-c2c[nH]c3ccccc23)cs1,"3.98 µM [falling, full curve]"
10,CCOC(=O)CC(NC(=O)CCc1c(C)nc2c(c(C)nn2-c2ccc(C)c(C)c2)c1C)c1ccc(C)cc1 (centres undefined),"5.01 µM [falling, full curve, poor fit]"
11,Cc1cccc(-n2ncc(C(=O)N3CCN(C4CCCCC4)CC3)c2C2CCN(C(=O)OC(C)(C)C)CC2)c1,"15.8 µM [falling, partial curve]"
12,COc1cccc(C(=O)NCc2ccc3c(c2)CCN3C(=O)c2ccncc2)c1,"39.8 µM [falling, single point]"
13,CCOC(=O)Cc1csc(NC(=O)c2cccc(OC)c2)n1,"12.6 µM [falling, partial curve]"
14,COc1ccccc1-c1nc(SCC(=O)c2ccccc2)n[nH]1,"0.01 µM [falling, full curve]"
15,COc1ccc(-c2[nH]c(-c3cccc(OC)c3)nc2SCC(=O)Nc2ccc3c(c2)OCO3)cc1,"3.16 µM [falling, full curve]"
16,CCN(c1cccc(C)c1)S(=O)(=O)c1ccc(N2CCCCS2(=O)=O)cc1,"0.00501 µM [rising, full curve, poor fit]"
17,COc1ccccc1C(=O)Oc1c(Sc2ccccc2)c(C)nn1C(C)(C)C,"12.6 µM [falling, partial curve]"
18,COc1ccc(-c2c3c(=O)n(C)c(=O)n(C)c3c3n2-c2ccccc2NC3c2ccc(OC)cc2)cc1 (centres undefined),"20 µM [falling, partial curve]"
19,Cc1ccc(NC(=O)c2cc(S(=O)(=O)N(C)C3CCCCC3)ccc2F)cc1C,"15.8 µM [falling, partial curve]"
20,COC(=O)c1ccc(CSc2nncn2C)cc1,"12.6 µM [falling, partial curve]"
21,O=C(Nc1ccc(C(=O)N2CCN(c3cccc(Cl)c3)CC2)cc1)c1nsc2ccccc12,"0.158 µM [falling, full curve]"
22,COc1ccccc1-c1cc(C(F)(F)F)nc(S(=O)(=O)CCCC(=O)N2CCCCC2C)n1 (centres undefined),"1.26 µM [falling, full curve]"

# An excerpt from above in order of formula weight, largest number first.
row,Structure (SMILES),AC50
11,Cc1cccc(-n2ncc(C(=O)N3CCN(C4CCCCC4)CC3)c2C2CCN(C(=O)OC(C)(C)C)CC2)c1,"15.8 µM [falling, partial curve]"
12,COc1cccc(C(=O)NCc2ccc3c(c2)CCN3C(=O)c2ccncc2)c1,"39.8 µM [falling, single point]"
20,COC(=O)c1ccc(CSc2nncn2C)cc1,"12.6 µM [falling, partial curve]"

# Later entries:

row,Structure (SMILES),AC50
1,CSc1cccc(NC(=O)CSc2nc3ccccc3o2)c1,"15.8 µM [falling, partial curve]"
2,COc1ccccc1CCNC(=O)c1ccc2c(c1)c(C)c(C)n2C,"15.8 µM [falling, partial curve]"
3,COc1ccc(NC(=O)CSc2ncc(-c3ccc(Cl)cc3)[nH]2)cc1OC,"7.94 µM [falling, partial curve]"
4,COC(=O)c1ccc(NC(=O)CC2C(=O)N(c3ccc(Cl)cc3)C(=O)N2Cc2cccs2)cc1 (centres undefined),"25.1 µM [falling, partial curve]"
5,Cc1cc(S(=O)(=O)Nc2cccc(C(=O)O)c2)c(C)c(S(=O)(=O)c2ccccc2)c1,"7.94 µM [falling, full curve]"
6,COC(=O)c1cc(NC(=O)CCc2c(C)nc3c4c(C)cc(C)nc4nn3c2C)cc(C(=O)OC)c1,"5.01 µM [rising, partial curve]"
7,CCOC(=O)c1sc(N2C(=O)c3oc4cc(C)c(C)cc4c(=O)c3C2c2cccc(O)c2)nc1C (centres undefined),"10 µM [falling, partial curve]"
8,Cc1ccc(Cn2c(=O)n(CCCCC(=O)NCCc3ccc(Cl)cc3)c(=O)c3ccccc32)cc1,"25.1 µM [falling, single point]"
9,Cc1ccccc1OCCCC(=O)Nc1ccc2c(c1)OCO2,"25.1 µM [falling, partial curve]"
10,COc1ccccc1-c1nc(-c2ccc(Br)cc2)no1,"0.00251 µM [falling, full curve]"
11,Cc1cc(C)cc(OCC(=O)NCC(c2ccc(Cl)cc2)N2CCCCC2)c1 (centres undefined),"31.6 µM [falling, single point]"
12,CC1CCc2c(sc3nnn(Cc4ccc(F)cc4)c(=O)c23)C1 (centres undefined),"3.98 µM [falling, single point]"
13,O=C(NCc1ccccc1)c1cc(-c2cccc(Cl)c2)on1,"10 µM [falling, partial curve, poor fit]"
14,CCc1nnc2c(Nc3ccc(Br)c(C)c3)nc3ccccc3n12,"0.631 µM [rising, full curve]"
15,CCn1nc(C)c(Oc2ccccc2O)c1C,"200 nM [rising, partial curve, poor fit] [measured here: IkB-luc green channel]"
16,Cc1ccc(-n2ncc(-c3nnc(SCC(=O)NC4CCCC4)o3)c2N)cc1C,"31.6 µM [falling, single point]"
17,CCCNC(=O)c1ccc2c(c1)N(Cc1cccc(C)c1)C(=O)c1ccccc1S2,"39.8 µM [falling, partial curve]"
18,CCCCCCCC/C=C\CCCCCCCC(=O)N[C@@H](CO)Cc1ccc(O)cc1,"12.6 µM [falling, full curve, poor fit]"
19,N=C(N)SCc1cccc(-c2nc3ccccc3c(=O)o2)c1,"3.16 µM [falling, single point]"
20,CCc1ccccc1NC(=O)c1cc(S(=O)(=O)N(CC)c2ccccc2)ccc1F,"20 µM [falling, partial curve]"
